Data as given in PubChem BioAssay AID1508597 (Cure First, 2020).

- Aim: 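Survival screen with siRNA in ovarian cancer cells derived from patients, with or without rucaparib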 (primary screen)
- Cell system: human ovarian carcinoma lines grown from tumours: OCI-P5x (papillary serous) and OCI-C5x (clear cell)
- Reagents: siRNA pool against human genes, 1.25 pmol siRNA per well
- Duration: 72 h or 96 h, depending on the cell culture
- Challenge: rucaparib 20 µM (about IC30) or vehicle, present until read-out
- Detection: 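Luminescent ATP-based viability assay read 72 or 96 h after transfection, depending on culture, given as normalised percent viability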
- Direction: viability, normalised: higher = more viable cells remaining
- Hit rule: 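a well counts as a hit if its normalised viability is under 80 percent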
- Meaning of the calls: active = viability under 80%; inactive = viability 80% or more
The deposit covers about 2,100 reagents; shown is a random part of them. 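Calls flag viability under 80% in either arm, not effects specific to rucaparib; the reference for percent is not stated.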 A number with no mark means an inactive call. The record does not give: the 100% reference.

Target gene	rucaparib or vehicle	cell line	technical replicate	viability, normalised (%)
TNKS	Rucaparib	OCI-C5x (clear cell)	1	70.6 (active)
TNKS	Rucaparib	OCI-C5x (clear cell)	2	72.5 (active)
TNKS	Rucaparib	OCI-C5x (clear cell)	3	89.3
TNKS	Rucaparib	OCI-P5x (serous)	1	97.6
TNKS	Rucaparib	OCI-P5x (serous)	2	108
TNKS	Rucaparib	OCI-P5x (serous)	3	127
TNKS	Vehicle	OCI-C5x (clear cell)	1	59.9 (active)
TNKS	Vehicle	OCI-C5x (clear cell)	2	64.2 (active)
TNKS	Vehicle	OCI-C5x (clear cell)	3	61.3 (active)
TNKS	Vehicle	OCI-P5x (serous)	1	76.8 (active)
TNKS	Vehicle	OCI-P5x (serous)	2	94.3
TNKS	Vehicle	OCI-P5x (serous)	3	97.7
GDPD1	Rucaparib	OCI-C5x (clear cell)	1	50 (active)
GDPD1	Rucaparib	OCI-C5x (clear cell)	2	38.2 (active)
GDPD1	Rucaparib	OCI-C5x (clear cell)	3	62.8 (active)
GDPD1	Rucaparib	OCI-P5x (serous)	1	58.3 (active)
GDPD1	Rucaparib	OCI-P5x (serous)	2	55.8 (active)
GDPD1	Rucaparib	OCI-P5x (serous)	3	61.9 (active)
GDPD1	Vehicle	OCI-C5x (clear cell)	1	33.1 (active)
GDPD1	Vehicle	OCI-C5x (clear cell)	2	36.8 (active)
GDPD1	Vehicle	OCI-C5x (clear cell)	3	45.1 (active)
GDPD1	Vehicle	OCI-P5x (serous)	1	73.5 (active)
GDPD1	Vehicle	OCI-P5x (serous)	2	81.8
GDPD1	Vehicle	OCI-P5x (serous)	3	76.3 (active)
SUPT7L	Rucaparib	OCI-C5x (clear cell)	1	55.7 (active)
SUPT7L	Rucaparib	OCI-C5x (clear cell)	2	44.6 (active)
SUPT7L	Rucaparib	OCI-C5x (clear cell)	3	44.5 (active)
SUPT7L	Rucaparib	OCI-P5x (serous)	1	53.9 (active)
SUPT7L	Rucaparib	OCI-P5x (serous)	2	52.3 (active)
SUPT7L	Rucaparib	OCI-P5x (serous)	3	55.7 (active)
SUPT7L	Vehicle	OCI-C5x (clear cell)	1	56.5 (active)
SUPT7L	Vehicle	OCI-C5x (clear cell)	2	42.3 (active)
SUPT7L	Vehicle	OCI-C5x (clear cell)	3	41.4 (active)
SUPT7L	Vehicle	OCI-P5x (serous)	1	61.1 (active)
SUPT7L	Vehicle	OCI-P5x (serous)	2	66.9 (active)
SUPT7L	Vehicle	OCI-P5x (serous)	3	62.5 (active)
KIF4A	Rucaparib	OCI-C5x (clear cell)	1	49.2 (active)
KIF4A	Rucaparib	OCI-C5x (clear cell)	2	62.7 (active)
KIF4A	Rucaparib	OCI-C5x (clear cell)	3	59.7 (active)
KIF4A	Rucaparib	OCI-P5x (serous)	1	98.3
KIF4A	Rucaparib	OCI-P5x (serous)	2	106
KIF4A	Rucaparib	OCI-P5x (serous)	3	91.5
KIF4A	Vehicle	OCI-C5x (clear cell)	1	45.5 (active)
KIF4A	Vehicle	OCI-C5x (clear cell)	2	40.5 (active)
KIF4A	Vehicle	OCI-C5x (clear cell)	3	42 (active)
KIF4A	Vehicle	OCI-P5x (serous)	1	86.9
KIF4A	Vehicle	OCI-P5x (serous)	2	87.7
KIF4A	Vehicle	OCI-P5x (serous)	3	87
STRADA	Rucaparib	OCI-C5x (clear cell)	1	66.8 (active)
STRADA	Rucaparib	OCI-C5x (clear cell)	2	49.3 (active)
STRADA	Rucaparib	OCI-C5x (clear cell)	3	41 (active)
STRADA	Rucaparib	OCI-P5x (serous)	1	83.7
STRADA	Rucaparib	OCI-P5x (serous)	2	69.8 (active)
STRADA	Rucaparib	OCI-P5x (serous)	3	70 (active)
STRADA	Vehicle	OCI-C5x (clear cell)	1	79.2 (active)
STRADA	Vehicle	OCI-C5x (clear cell)	2	55.8 (active)
STRADA	Vehicle	OCI-C5x (clear cell)	3	50 (active)
STRADA	Vehicle	OCI-P5x (serous)	1	77.8 (active)
STRADA	Vehicle	OCI-P5x (serous)	2	78.5 (active)
STRADA	Vehicle	OCI-P5x (serous)	3	66.8 (active)

Records listed so far whose gene name starts with K or k (12):
Target gene	rucaparib or vehicle	cell line	technical replicate	viability, normalised (%)
KIF4A	Rucaparib	OCI-C5x (clear cell)	1	49.2 (active)
KIF4A	Rucaparib	OCI-C5x (clear cell)	2	62.7 (active)
KIF4A	Rucaparib	OCI-C5x (clear cell)	3	59.7 (active)
KIF4A	Rucaparib	OCI-P5x (serous)	1	98.3
KIF4A	Rucaparib	OCI-P5x (serous)	2	106
KIF4A	Rucaparib	OCI-P5x (serous)	3	91.5
KIF4A	Vehicle	OCI-C5x (clear cell)	1	45.5 (active)
KIF4A	Vehicle	OCI-C5x (clear cell)	2	40.5 (active)
KIF4A	Vehicle	OCI-C5x (clear cell)	3	42 (active)
KIF4A	Vehicle	OCI-P5x (serous)	1	86.9
KIF4A	Vehicle	OCI-P5x (serous)	2	87.7
KIF4A	Vehicle	OCI-P5x (serous)	3	87
